In this experiment the target is HLA-B*07:02 (human). Description: UV-ligand exchange, b2m ELISA; grade of exchange yield. For orientation: ELISA stands for enzyme-linked immunosorbent assay.

These results are taken from patent US20230312680A1.

These are yes or no findings as the source states them, for the method shown. Binding calls can cover weak binding; strength is not graded here. Ends that are not written are not given here.

As to YPGFPQSQY [… (SEQ ID No 122)], the binding result is recorded as “binds”.
For EPKTATVL [EPKTATVL (SEQ ID No 316)], the binding entry is given as “binds”.
Consider TVREASGLL [… (SEQ ID No 297)], for which the binding entry is reported as “binds”.
Turning to APAAWLRSA [… (SEQ ID No 36)], the binding entry is given as “binds”.
On to APLPRPGAVL [… (SEQ ID No 119)], for which the binding result was “binds”.
Regarding APVIFSHSA [… (SEQ ID No 306)], the binding result was “binds”.
Next, VPNQSSESL [… (SEQ ID No 121)]: “binds”.
Next, SPTFHLTL [SPTFHLTL (SEQ ID No 33)]: “binds”.
As for HPGSSALHY [… (SEQ ID No 299)], the binding result is “binds”.
To LPRPGAVL [LPRPGAVL (SEQ ID No 304)] belongs “binds”.
Regarding KVKSDRSVF [… (SEQ ID No 313)], the binding entry is “binds”.
Take RPIVPGPLL [… (SEQ ID No 134)]: the binding result is recorded as “binds”.
Next, MPNLPSTTSL [… (SEQ ID No 133)]: “binds”; FPDNQRPAL [… (SEQ ID No 35)]: “binds”; RPLFYVVSL [… (SEQ ID No 311)]: “binds”.
Next, SPRRSPRISF [… (SEQ ID No 301)]: “binds”; KPYGGSGPL [… (SEQ ID No 148)]: “binds”.
Take SPAMTSTSF [… (SEQ ID No 143)]: the binding entry is “binds”.
In the case of APRAGSQVV [… (SEQ ID No 127)], the binding entry was “binds”.
For SPNKGTLSV [… (SEQ ID No 32)], the binding result is on record as “binds”.
To YPLRGSSIF [… (SEQ ID No 294)] belongs “binds”; to SPQSMSNTL [… (SEQ ID No 139)], “binds”.
Next, IPGPAQSTI [… (SEQ ID No 132)]: “binds”; SPSPVSSTL [… (SEQ ID No 144)]: “binds”; TPGLRETSI [… (SEQ ID No 142)]: “binds”.
Take YPLRGSSI [YPLRGSSI (SEQ ID No 296)]: the binding result is reported as “binds”.
On to RVEEVRALL [… (SEQ ID No 302)], for which the binding entry is “binds”.
As for GPREALSRL [… (SEQ ID No 149)], the binding result is recorded as “binds”.
To SPASRSISL [… (SEQ ID No 118)] belongs “binds”; to FPMSPVTSV [… (SEQ ID No 320)], “binds”; to SPHPVTALLTL [… (SEQ ID No 38)], “binds”.
To KPGPEDKL [KPGPEDKL (SEQ ID No 126)] belongs “binds”.
Regarding SPSSPMSTF [… (SEQ ID No 145)], the binding result is given as “binds”.
To APTEDLKAL [… (SEQ ID No 131)] belongs “binds”; to TPWAESSTKF [… (SEQ ID No 305)], “binds”.
Next, RPAPFEVVF [… (SEQ ID No 39)]: “binds”.
Next, KPGTSYRVTL [… (SEQ ID No 40)]: “binds”; SPMTSLLTSGL [… (SEQ ID No 141)]: “binds”.
As to FPFQPGSV [FPFQPGSV (SEQ ID No 317)], the binding result is “binds”.
In the case of LPYGPGSEAAAF [… (SEQ ID No 307)], the binding entry was “binds”.
To YPRTITPGM [… (SEQ ID No 128)] belongs “binds”; to IPMAAVKQAL [… (SEQ ID No 300)], “binds”; to LPSDSHFKITF [… (SEQ ID No 124)], “binds”.
On to FPQSQYPQY [… (SEQ ID No 309)], for which the binding entry was “binds”.
Next, RVRSRISNL [… (SEQ ID No 41)]: “binds”; SPFSAEEANSL [… (SEQ ID No 136)]: “binds”; RPAMNYDKL [… (SEQ ID No 120)]: “binds”.
To SPGATSRGTL [… (SEQ ID No 137)] belongs “binds”.
Next, FPRLVGPDF [… (SEQ ID No 130)]: “binds”.
As to LPYFREFSM [… (SEQ ID No 312)], the binding entry is recorded as “binds”.
On to RVRSTISSL [… (SEQ ID No 135)], for which the binding result is on record as “binds”.
To APRPASSL [APRPASSL (SEQ ID No 129)] belongs “binds”; to LPRGPLASLL [… (SEQ ID No 34)], “binds”.
Take IPRPEVQAL [… (SEQ ID No 146)]: the binding result is reported as “binds”.
For SPRTEASSAVL [… (SEQ ID No 140)], the binding result is reported as “binds”.
As for RPLFQKSSM [… (SEQ ID No 37)], the binding entry is “binds”.
Next, SPAEPSVYATL [… (SEQ ID No 319)]: “binds”.
Next, SPRENFPDTL [… (SEQ ID No 315)]: “binds”.
Next, YPLRGSSIFGL [… (SEQ ID No 295)]: “binds”.
Consider APRWFPQPTVV [… (SEQ ID No 147)], for which the binding result is given as “binds”.
In the case of VPDSGATATAY [… (SEQ ID No 293)], the binding entry is given as “binds”.
Next, SPMATTSTL [… (SEQ ID No 138)]: “binds”; KPSESIYSAL [… (SEQ ID No 123)]: “binds”.
Next, VPVYILLDEM [… (SEQ ID No 125)]: “binds”; SPDPSKHLL [… (SEQ ID No 322)]: “binds”.
As to LPMWKVTAF [… (SEQ ID No 303)], the binding entry is “binds”.
Regarding FPNRLNLEA [… (SEQ ID No 318)], the binding result is given as “binds”.
To SPMDTFLLI [… (SEQ ID No 321)] belongs “binds”; to YPTEHVQF [YPTEHVQF (SEQ ID No 298)], “binds”.
Take VPDQPHPEI [… (SEQ ID No 314)]: the binding entry is listed as “binds”.
